Experimental data: PMC7380572

Legend:
[1] = biological target: T25-ZipN (Anabaena sp. strain PCC 7120); experiment: two-hybrid; bacterial adenylate cyclase two-hybrid (BACTH) in E. coli BTH101; beta-galactosidase activity in liquid cultures at 30°C with IPTG
[2] = biological target: SepF-T25 (Anabaena sp. strain PCC 7120); experiment: as above
[3] = biological target: SepJ-T18 (Anabaena sp. strain PCC 7120); experiment: as above
[4] = biological target: 6His-ZipN (Anabaena sp. strain PCC 7120); experiment: pull-down; copurification: E. coli cell-free extracts mixed and incubated overnight at 4°C in buffer A (50 mM Tris-HCl pH 7.5, 150 mM KCl, 10% glycerol), passed through a His-Select column, washed with 300 mM imidazole, eluted with 1 M imidazole; Western blot against Strep-tag and MALDI-TOF

B1: T18-PatA (protein, UniProt P39048 1-379)
chain: MKTLPITRYRFFQKIQPLSLLKKITGKTITGCLQVFSTSGTWSIYVEEGKLIYACYSERMFEPLYRHLGNLSPQIATLPKEINEQLRAIFETGIENQAIPNPDYLAICWLVNQKYISSSQAAVLIEQLALEVVESFLMLEEGSYEFIPESFLDDLPKFCYLNVRLLVEQCQQHGRVPEAFRREASSQEISSSTEHNQIPVNNRRSTKFTSPPHTQPKPEPRLPQINTNKSTEYSKRYASQPNTVNHGYSQTSATSTDKKIYTIFCIDENPIVLNNIKNFLDDQIFAVIGVTDSLKALMEILCTKPDIILINVDMPDLDGYELCSLLRKHSYFKNTPVIMVTEKAGLVDRARAKIVRASGHLTKPFNQGDLLKVIFKHIT
[1]
  binding: binds
[2]
  binding: binds

B2: T25-PatA (protein, UniProt P39048 1-379)
chain: B1 chain
[3]
  binding: binds weakly

B3: Strep-tag-PatA (protein, UniProt P39048 1-379)
chain: B1 chain
[4]
  binding: binds

Results are given in words; binding and its absence hold for the method and conditions named. A result given as binding can be weak or reduced; the word gives no strength. For some of these results: Binding seen in cells or lysates may run through a third protein. For some of these results: Tags and fused reporters may be left off the sequences shown.
